# Library screen at single concentrations

Amino acid sequences for entries named in this document (tags omitted). Residues count along the entry.
UniProt A4I591, 1-473: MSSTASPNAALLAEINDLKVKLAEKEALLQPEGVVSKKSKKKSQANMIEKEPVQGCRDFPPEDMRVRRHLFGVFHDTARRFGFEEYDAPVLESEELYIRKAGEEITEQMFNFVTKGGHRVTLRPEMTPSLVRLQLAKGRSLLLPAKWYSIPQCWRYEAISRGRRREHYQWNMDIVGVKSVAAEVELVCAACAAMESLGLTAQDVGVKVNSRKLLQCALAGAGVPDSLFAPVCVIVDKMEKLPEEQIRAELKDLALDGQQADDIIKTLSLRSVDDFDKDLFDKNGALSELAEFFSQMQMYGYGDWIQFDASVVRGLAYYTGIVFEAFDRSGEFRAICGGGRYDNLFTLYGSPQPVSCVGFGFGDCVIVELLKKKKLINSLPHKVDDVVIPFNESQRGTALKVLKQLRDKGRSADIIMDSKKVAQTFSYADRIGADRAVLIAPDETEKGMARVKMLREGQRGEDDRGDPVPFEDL
UniProt P9WNZ1, whole entry: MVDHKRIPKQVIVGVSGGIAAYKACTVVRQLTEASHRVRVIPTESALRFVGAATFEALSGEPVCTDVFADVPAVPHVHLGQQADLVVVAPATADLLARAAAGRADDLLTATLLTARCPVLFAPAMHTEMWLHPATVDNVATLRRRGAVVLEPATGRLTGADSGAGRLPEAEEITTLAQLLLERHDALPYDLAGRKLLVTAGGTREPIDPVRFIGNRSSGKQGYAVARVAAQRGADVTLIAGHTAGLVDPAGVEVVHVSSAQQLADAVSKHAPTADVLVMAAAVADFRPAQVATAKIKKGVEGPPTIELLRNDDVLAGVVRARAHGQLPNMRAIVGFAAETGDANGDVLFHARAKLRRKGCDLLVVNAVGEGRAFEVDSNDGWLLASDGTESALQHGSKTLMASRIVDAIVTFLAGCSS
UniProt Q8IDJ8, 1-583: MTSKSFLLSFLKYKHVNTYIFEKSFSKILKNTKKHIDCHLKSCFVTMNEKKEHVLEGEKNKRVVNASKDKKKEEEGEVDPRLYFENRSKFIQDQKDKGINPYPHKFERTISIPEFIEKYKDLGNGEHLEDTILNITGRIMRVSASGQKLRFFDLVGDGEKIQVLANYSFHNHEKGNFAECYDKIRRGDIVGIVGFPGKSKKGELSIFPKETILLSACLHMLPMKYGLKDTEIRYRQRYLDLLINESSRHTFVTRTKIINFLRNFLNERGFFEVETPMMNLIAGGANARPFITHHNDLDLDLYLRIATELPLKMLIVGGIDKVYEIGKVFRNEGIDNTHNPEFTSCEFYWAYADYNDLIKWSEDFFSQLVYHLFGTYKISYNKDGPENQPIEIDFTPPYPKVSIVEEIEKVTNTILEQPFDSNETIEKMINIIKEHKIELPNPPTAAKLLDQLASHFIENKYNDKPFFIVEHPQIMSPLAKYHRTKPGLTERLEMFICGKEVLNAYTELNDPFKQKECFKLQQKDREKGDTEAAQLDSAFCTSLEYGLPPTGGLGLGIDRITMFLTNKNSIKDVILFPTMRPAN
UniProt P9WFT3, whole entry: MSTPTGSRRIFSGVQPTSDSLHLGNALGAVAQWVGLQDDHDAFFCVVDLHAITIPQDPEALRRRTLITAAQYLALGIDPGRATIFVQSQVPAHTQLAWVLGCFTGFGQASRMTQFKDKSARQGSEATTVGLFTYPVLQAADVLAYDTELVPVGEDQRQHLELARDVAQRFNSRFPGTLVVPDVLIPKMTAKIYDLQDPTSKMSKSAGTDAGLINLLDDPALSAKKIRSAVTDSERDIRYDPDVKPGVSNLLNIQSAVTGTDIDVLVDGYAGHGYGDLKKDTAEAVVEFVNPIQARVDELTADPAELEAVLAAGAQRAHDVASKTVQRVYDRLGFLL

From ChEMBL document CHEMBL3988442, “University of Dundee, Small-Polar-MMV Screening Library” (2021).

Each number is a percent effect as filed.
The controls that fix the scale are not given in the record; negative values are as filed.
The compounds are a random part of those screened.
A dash means the value is not listed here; it may have been measured.

A: 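Enzyme assay of histidyl-tRNA synthetase; the read-out is not stated. Target: Histidine-tRNA ligase, Leishmania infantum (UniProt A4I591). Compounds at 30 µM. Direction is inferred from retests: higher values go with stronger inhibition. The assay is labelled LdHisRS but filed under L. infantum. About 69,000 compounds were tested under these conditions; 0.6% (about 410) showed 50% or more at least once.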
B: 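Enzyme assay of CoaBC with a phosphate dye (Biomol Green) read at 650 nm. Target: Coenzyme A biosynthesis protein CoaBC, Mycobacterium tuberculosis (UniProt P9WNZ1). Tested at 30 µM. Direction is inferred from only a few compounds that gave an IC50; most scored high, so higher reads as stronger inhibition. Most strong results did not repeat in a second test. About 67,000 compounds were tested under these conditions; 0.06% (about 40) showed 50% or more at least once.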
C: 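Lysine-tRNA ligase, Plasmodium falciparum 3D7 (UniProt Q8IDJ8). Enzyme assay of the cytosolic lysyl-tRNA synthetase in 384-well plates, read by luminescence. Concentration: 30 µM. Direction is inferred from only a few compounds that gave an IC50; most scored high, so higher reads as stronger inhibition. About 69,000 compounds were tested under these conditions; 0.071% (about 49) showed 50% or more at least once.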
D: 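Tryptophan-tRNA ligase, Mycobacterium tuberculosis (UniProt P9WFT3). Enzyme assay of tryptophanyl-tRNA synthetase; the read-out is not stated. Concentration: 10 µM. Higher most likely means stronger inhibition; the record gives no direction and few retests gave an IC50. Size under these conditions: about 65,000 compounds, about 64 of them at 50% or above in at least one test.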

SMILES | A | B | C | D
Fc1ccccc1Sc1ccccc1CNC1=NCCN1 | 26.44 | 3.356 | -1.189 | 3.181
O=C(c1cc[nH]c(=O)c1)N1CCn2c(nnc2-c2ccccc2)C1 | 2.857 | - | -1.121 | -0.1032
O=C(Nc1ccc(F)c(F)c1)N1CCC2(CCC(=O)N(C3CC3)C2)CC1 | 10.42 | -1.786 | 2.844 | -5.676
CC(=O)N(C)CC(=O)Nc1cc(C(F)(F)F)c[nH]c1=O | 13.7 | 5.579 | 4.369 | -3.641
Cc1cc(CN(C)C(=O)c2ccc(F)c(C(F)(F)F)c2)no1 | 5.172 | 2.611 | -0.3823 | -8.641
O=C(c1cncc(Br)c1)N1CCCc2ccc(F)cc21 | 17.2 | -0.9828 | 2.659 | 2.051
Cc1nccn1C1CCCN(C(=O)COCC(F)(F)F)C1 (stereo unspecified) | 4.255 | 6.218 | 7.947 | 2.747
CC(C)(CN1CCC(Cc2ccc(C(=O)O)cc2)C1)N1CCOCC1 (stereo unspecified) | 13.11 | -0.1196 | 4.288 | -0.3661
Cc1cc(NCc2ccc(N3CCNC(=O)C3)cc2)nc(C)n1 | 13.16 | 1.21 | 2.628 | -5.301
O=C1CCC2(CCN(CCSc3ccccc3)CC2)CN1CCCO | 14.75 | 3.836 | 2.19 | -1.575
CCC(C)(CC)NC(=O)COc1nn(C)c2nc(C)cc(C)c12 | 12.24 | 10.56 | -2.571 | 31.49
COCCN1CCOCC12CCN(C(=O)c1cccnc1)CC2 | 10.09 | 9.128 | -0.129 | -0.5348
Cc1cc(C[S+]([O-])CC(=O)NCc2cccs2)no1 (stereo unspecified) | 21.92 | -3.855 | 4.51 | -0.2398
COc1ncccc1C(=O)N1CCC(Nc2ccc(C)nn2)CC1 | 5.357 | 2.955 | 0.09842 | -7.657
CCOc1ccc(CC(CNC(=O)c2occc2C)C(N)=O)cc1 (stereo unspecified) | 10.67 | 7.692 | -0.1891 | -2.267
CC(C)(C)c1noc(-c2nc3c([nH]2)CCCNC3=O)n1 | 19.35 | -4.668 | 8.168 | 4.359
CCC(CO)N(Cc1ccccn1)C(=O)c1ccc(=O)[nH]c1 (stereo unspecified) | -2.083 | -1.542 | 5.539 | -5.901
C=C(C)COc1ccc(C(CC(=O)OC)c2oc(C)cc(=O)c2O)cc1 (stereo unspecified) | 15.38 | -1.781 | 5.601 | -0.3268
Cc1ccc(CC(=O)N2CSCC2C(=O)N(C)Cc2ccco2)o1 (stereo unspecified) | -1.515 | 6.511 | 6.463 | 0.6823
O=S(=O)(CCNC1CCc2ncnn2C1)c1ccc(Cl)cc1 (stereo unspecified) | 8.547 | -5.094 | -0.402 | -2.669
O=C(O)C1(Cc2cccc(-c3ccc(F)cc3)c2)CCOCC1 | -28.12 | -0.4902 | -1.846 | -
Cc1noc(C)c1CNc1cc(N2CCCC2CO)ncn1 (stereo unspecified) | 16.22 | 7.572 | 3.242 | -1.267
OCCN1CCCCC1C1OCCO1 (stereo unspecified) | 8.163 | 0.4959 | 4.041 | 1.909
CN(C)C(=O)N1CCc2c(nnn2C)C1COCc1ccccc1 (stereo unspecified) | 15.09 | 4.949 | -1.139 | 3.673
Cc1nc(CN2CCC23CCN(Cc2ccoc2)CC3)cs1 | 33.33 | 8.168 | 2.969 | -
CN(C)C(=O)Cc1ccc(NC(=O)NC2CCCCC2)cc1 | 15.38 | -7.889 | -6.267 | 4.257
Cn1cc(Br)c(=O)c(NS(=O)(=O)c2ccc(F)cc2)c1 | 13.46 | 4.051 | 0.3932 | -1.161
OC1(CNCCN2CCc3ccccc32)CNCCOC1 (stereo unspecified) | 29.67 | -6.84 | 2.635 | 0.7698
Cc1ccc(F)cc1C(=O)NCc1ccc(C(=O)O)o1 | -2.74 | -2.39 | -1.713 | 1.624
COCCCNC(=O)CN(C)C(=O)c1cc2cc(C)ccc2nc1C | 11.01 | 10.34 | -1.772 | -1.258
Cc1ncsc1CN1CC[C@H]2C(=O)N(c3ccccc3)CCO[C@H]2C1 | 12.41 | 4.404 | 0.01192 | -1.586
O=C(Cc1ccccc1)N1CCC2(CC1)CC(Nc1cnccn1)CO2 (stereo unspecified) | 7.547 | 1.463 | 3.074 | -
Cc1ncc2c(c1-c1noc(-c3cscn3)n1)CCNC2 | 5.195 | 0 | 6.037 | 4.203
CN(C)CC(=O)N1C[C@@H]2CC[C@H](Oc3ccccc3Cl)[C@@H]2C1 | 8.333 | 2.778 | 5.42 | -4.431
CC(C)CC1CC(=O)Nc2c1cnn2Cc1ccco1 (stereo unspecified) | 21.05 | 4.81 | 6.922 | 0.8862
Cc1ccnc(C2CCN(C(=O)CCn3ncc4ccccc43)C2)n1 (stereo unspecified) | 6.207 | 0.8653 | 1.231 | -1.882
O=C(c1ccc[nH]1)N1CCCC2(CCN(c3ccsc3)C2=O)C1 (stereo unspecified) | 8.738 | 2.155 | -1.973 | -4.079
Cc1cc(N2CCC(c3n[nH]c4nccnc34)C2)ncn1 (stereo unspecified) | 7.368 | -1.217 | 1.421 | 3.536
CC1CCC(NS(=O)(=O)CC(=O)NC(C2CC2)C2CC2)CC1 (stereo unspecified) | 7.143 | -8.495 | -2.174 | -0.144
Cc1ccc(N2CCCC(N3CCC(CO)CC3)C2=O)cc1 (stereo unspecified) | 18.42 | 4.126 | 4.766 | 5.29
CNS(=O)(=O)c1ccc(F)c(C(=O)NCc2ccnc(OC)c2)c1 | 11.5 | 0 | -3.025 | -1.643
O=C(CCCc1ccccn1)NCC(O)c1c(F)cccc1F (stereo unspecified) | 12.9 | -1.72 | 2.588 | -0.2564
CN1CCN(C(=O)c2occc2CN2C(=O)Cc3ccccc32)CC1 | 24.05 | -4.436 | 4.661 | 2.569
CCOc1ccccc1N(C)C(=O)c1cscn1 | 10.45 | 1.205 | 5.188 | 1.729
O=C(CCCc1ccc(F)cc1)N1C[C@@H](CN2CCOCC2)[C@@H](CO)C1 | 19.23 | -0.6397 | 6.248 | -0.07128
CN(C(=O)c1cccn1C)C1CCC(NC(=O)OC(C)(C)C)CC1 (stereo unspecified) | 11.2 | 2.195 | -0.07574 | -0.602
CCC(C)(CNC(=O)Nc1nccs1)N1CCOCC1 (stereo unspecified) | 17.58 | 4.756 | 3.671 | -1.589